Test results taken from PubChem BioAssay AID188 (DTP/NCI, 2004).
Values are animals surviving of animals treated; these mice carried no tumour. Survivors were counted at the toxicity check, usually on the fifth day, unless a day is given; later deaths do not show. Schedule codes are those of the source, read here as Q, the interval in days (D) or hours (H), X, the number of doses. Some doses were run more than once; the results are listed from low to high.

Tested on: CD2F1 mice, nontumored, toxicity/survival
Assay: NCI In Vivo Anticancer Drug Screen. Data for tumor model Nontumored Animals (Toxicity Test) in CD2F1 (CDF1) mice
[1] = dose: 1.0 mg/kg/injection, schedule: Q01DX001 (ip), vehicle: DMSO
[2] = dose: 10.0 mg/kg/injection, schedule: Q01DX001 (ip), vehicle: DMSO
[3] = dose: 100.0 mg/kg/injection, schedule: Q01DX001 (ip), vehicle: DMSO
[4] = dose: 1.0 mg/kg/injection, schedule: Q01DX001 (ip), vehicle: olive oil, sesame oil, peanut oil
[5] = dose: 10.0 mg/kg/injection, schedule: Q01DX001 (ip), vehicle: olive oil, sesame oil, peanut oil
[6] = dose: 100.0 mg/kg/injection, schedule: Q01DX001 (ip), vehicle: olive oil, sesame oil, peanut oil
[7] = dose: 0.13 mg/kg/injection, schedule: Q01DX009 (ip), vehicle: saline
[8] = dose: 1.0 mg/kg/injection, schedule: Q01DX009 (ip), vehicle: saline
[9] = dose: 1.5 mg/kg/injection, schedule: Q01DX009 (ip), vehicle: saline
[10] = dose: 5.0 mg/kg/injection, schedule: Q01DX001 (ip), vehicle: saline

## CN(C)N=Nc1ccc(S(N)(=O)=O)cc1
dose: 118.0 mg/kg/injection, schedule: Q01DX009 (ip), vehicle: Klucel (hydroxypropylcellulose) (HPC)
  survivor count: 10 of 10
dose: 177.0 mg/kg/injection, schedule: Q01DX009 (ip), vehicle: Klucel (hydroxypropylcellulose) (HPC)
  survivor count: 8 of 10
dose: 266.0 mg/kg/injection, schedule: Q01DX009 (ip), vehicle: Klucel (hydroxypropylcellulose) (HPC)
  survivor count: 5 of 10
dose: 400.0 mg/kg/injection, schedule: Q01DX009 (ip), vehicle: Klucel (hydroxypropylcellulose) (HPC)
  survivor count: 7 of 10
dose: 600.0 mg/kg/injection, schedule: Q01DX009 (ip), vehicle: Klucel (hydroxypropylcellulose) (HPC)
  survivor count: 0 of 10

## CC(=O)Nc1nc(Br)c2ccccc2c1-c1ccc(N(CCCl)CCCl)cc1
[1]
  survivor count: 2 of 2
[2]
  survivor count: 2 of 2
[3]
  survivor count: 2 of 2

## Nc1ncnc2c1ncn2C1OC(COP(=O)(O)O)C(O)C1O (stereo not drawn)
dose: 20.0 mg/kg/injection, schedule: Q01DX009 (ip), vehicle: water
  survivor count: 10 of 10
dose: 40.0 mg/kg/injection, schedule: Q01DX009 (ip), vehicle: water
  survivor count: 10 of 10
dose: 80.0 mg/kg/injection, schedule: Q01DX009 (ip), vehicle: water
  survivor count: 10 of 10
dose: 80.0 mg/kg/injection, schedule: Q04DX002 (ip), vehicle: water
  survivor count: 10 of 10
dose: 150.0 mg/kg/injection, schedule: Q03HX024 (ip), vehicle: water
  survivor count: 5 of 5
dose: 160.0 mg/kg/injection, schedule: Q01DX009 (ip), vehicle: water
  survivor count: 10 of 10
dose: 160.0 mg/kg/injection, schedule: Q04DX002 (ip), vehicle: water
  survivor count: 10 of 10
dose: 250.0 mg/kg/injection, schedule: Q03HX024 (ip), vehicle: water
  survivor count: 5 of 5
dose: 320.0 mg/kg/injection, schedule: Q01DX009 (ip), vehicle: water
  survivor count: 10 of 10
dose: 320.0 mg/kg/injection, schedule: Q04DX002 (ip), vehicle: water
  survivor count: 10 of 10
dose: 640.0 mg/kg/injection, schedule: Q01DX009 (ip), vehicle: water
  survivor count: 10 of 10
dose: 640.0 mg/kg/injection, schedule: Q04DX002 (ip), vehicle: water
  survivor count: 10 of 10

## O=C(CCl)Nc1ccc(-c2c(NC(=O)CCl)ncc3ccccc23)cc1
[1]
  survivor count: 2 of 2
[4]
  survivor count: 2 of 2
[2]
  survivor count: 2 of 2
[5]
  survivor count: 2 of 2
[3]
  survivor count: 2 of 2
[6]
  survivor count: 2 of 2

## CC(=O)NC(Cc1ccc(N(CCCl)CCCl)cc1)C(=O)NC(CC(C)C)C(=O)O (stereo not drawn)
dose: 8.4 mg/kg/injection, schedule: Q04DX003 (ip), vehicle: saline with Tween-80
  survivor count: 8 of 8
dose: 12.6 mg/kg/injection, schedule: Q04DX003 (ip), vehicle: saline with Tween-80
  survivor count: 8 of 8
dose: 18.9 mg/kg/injection, schedule: Q04DX003 (ip), vehicle: saline with Tween-80
  survivor count: 8 of 8
dose: 28.4 mg/kg/injection, schedule: Q04DX003 (ip), vehicle: saline with Tween-80
  survivor count: 8 of 8
dose: 42.6 mg/kg/injection, schedule: Q04DX003 (ip), vehicle: saline with Tween-80
  survivor count: 8 of 8
dose: 64.0 mg/kg/injection, schedule: Q04DX003 (ip), vehicle: saline with Tween-80
  survivor count: 8 of 8
dose: 96.0 mg/kg/injection, schedule: Q04DX003 (ip), vehicle: saline with Tween-80
  survivor count: 8 of 8
dose: 144.0 mg/kg/injection, schedule: Q04DX003 (ip), vehicle: saline with Tween-80
  survivor count: 8 of 8

## CO[C@@]12[C@H](COC(N)=O)C3=C(C(=O)C(C)=C(N)C3=O)N1C[C@@H]1N[C@@H]12
[7]
  survivor count: 5 of 5
dose: 0.22 mg/kg/injection, schedule: Q01DX009 (ip), vehicle: saline
  survivor count: 5 of 5
dose: 0.25 mg/kg/injection, schedule: Q01DX009 (ip), vehicle: water
  survivor count: 4 of 4
dose: 0.36 mg/kg/injection, schedule: Q01DX009 (ip), vehicle: saline
  survivor count: 5 of 5
dose: 0.36 mg/kg/injection, schedule: Q01DX009 (ip), vehicle: water
  survivor count: 4 of 4
dose: 0.38 mg/kg/injection, schedule: Q01DX009 (ip), vehicle: saline
  survivor count: 4 of 4
dose: 0.5 mg/kg/injection, schedule: Q01DX009 (ip), vehicle: water
  survivor count: 4 of 4
dose: 0.6 mg/kg/injection, schedule: Q01DX009 (ip), vehicle: saline
  survivor count: 5 of 5
dose: 0.6 mg/kg/injection, schedule: Q01DX009 (ip), vehicle: water
  survivor count: 4 of 4
dose: 0.75 mg/kg/injection, schedule: Q01DX009 (ip), vehicle: saline
  survivor count: 4 of 4
[8]
  survivor count: 5 of 5
dose: 1.0 mg/kg/injection, schedule: Q01DX009 (ip), vehicle: water
  survivor count: 4 of 4
[9]
  survivor count: 4 of 4
dose: 1.67 mg/kg/injection, schedule: Q01DX009 (ip), vehicle: saline
  survivor count: 5 of 5
dose: 1.67 mg/kg/injection, schedule: Q01DX009 (ip), vehicle: water
  survivor count: 4 of 4
dose: 1.8 mg/kg/injection, schedule: Q01DX001 (ip), vehicle: saline
  survivor count: 4 of 4
dose: 1.8 mg/kg/injection, schedule: Q01DX001 (ip), vehicle: water
  survivor count: 4 of 4
dose: 1.8 mg/kg/injection, schedule: Q04DX003 (ip), vehicle: water
  survivor count: 5 of 5
dose: 2.0 mg/kg/injection, schedule: Q01DX009 (ip), vehicle: water
  survivor count: 4 of 4
dose: 3.0 mg/kg/injection, schedule: Q01DX001 (ip), vehicle: saline
  survivor count: 4 of 4
dose: 3.0 mg/kg/injection, schedule: Q01DX001 (ip), vehicle: water
  survivor count: 4 of 4
dose: 3.0 mg/kg/injection, schedule: Q01DX009 (ip), vehicle: saline
  survivor count: 4 of 4
dose: 3.0 mg/kg/injection, schedule: Q04DX003 (ip), vehicle: water
  survivor count: 5 of 5
[10]
  survivor count: 4 of 4
dose: 5.0 mg/kg/injection, schedule: Q01DX001 (ip), vehicle: water
  survivor count: 4 of 4
dose: 5.0 mg/kg/injection, schedule: Q04DX003 (ip), vehicle: water
  survivor count: 5 of 5
dose: 8.3 mg/kg/injection, schedule: Q01DX001 (ip), vehicle: saline
  survivor count: 4 of 4
dose: 8.3 mg/kg/injection, schedule: Q01DX001 (ip), vehicle: water
  survivor count: 4 of 4
dose: 8.3 mg/kg/injection, schedule: Q04DX003 (ip), vehicle: water
  survivor count: 5 of 5

## COc1cccc2c1C(=O)c1c(O)c3c(c(O)c1C2=O)C[C@@](O)(C(C)=O)C[C@@H]3OC1CC(N)C(O)C(C)O1 (stereo partly drawn)
dose: 0.02 mg/kg/injection, schedule: Q01DX009 (ip), vehicle: saline
  survivor count: 8 of 8
dose: 0.03 mg/kg/injection, schedule: Q01DX009 (ip), vehicle: saline
  survivor count: 8 of 8
dose: 0.06 mg/kg/injection, schedule: Q01DX009 (ip), vehicle: saline
  survivor count: 7 of 7 and 8 of 8
[7]
  survivor count: 7 of 7 and 8 of 8
dose: 0.25 mg/kg/injection, schedule: Q01DX009 (ip), vehicle: saline
  survivor count: 8 of 8
dose: 0.5 mg/kg/injection, schedule: Q01DX009 (ip), vehicle: saline
  survivor count: 8 of 8
dose: 0.62 mg/kg/injection, schedule: Q01DX001 (ip), vehicle: saline
  survivor count: 8 of 8
[8]
  survivor count: 7 of 8 and 8 of 8
dose: 1.25 mg/kg/injection, schedule: Q01DX001 (ip), vehicle: saline
  survivor count: 8 of 8
[9]
  survivor count: 8 of 8
dose: 2.0 mg/kg/injection, schedule: Q01DX009 (ip), vehicle: saline
  survivor count: 6 of 8, 7 of 8, 8 of 8
dose: 2.5 mg/kg/injection, schedule: Q01DX001 (ip), vehicle: saline
  survivor count: 8 of 8
dose: 3.1 mg/kg/injection, schedule: Q01DX001 (iv), vehicle: saline
  survivor count: 8 of 8
dose: 4.0 mg/kg/injection, schedule: Q01DX009 (ip), vehicle: saline
  survivor count: 2 of 8, 5 of 8, 6 of 8, 7 of 8, 8 of 8
[10]
  survivor count: 8 of 8
dose: 5.18 mg/kg/injection, schedule: Q01DX001 (iv), vehicle: saline
  survivor count: 8 of 8
dose: 8.64 mg/kg/injection, schedule: Q01DX001 (iv), vehicle: saline
  survivor count: 8 of 8
dose: 10.0 mg/kg/injection, schedule: Q01DX001 (ip), vehicle: saline
  survivor count: 8 of 8
dose: 14.4 mg/kg/injection, schedule: Q01DX001 (iv), vehicle: saline
  survivor count: 3 of 8 and 8 of 8
dose: 24.0 mg/kg/injection, schedule: Q01DX001 (iv), vehicle: saline
  survivor count: 1 of 8, 6 of 8, 7 of 8, 8 of 8
dose: 40.0 mg/kg/injection, schedule: Q01DX001 (iv), vehicle: saline
  survivor count: 0 of 8 and 8 of 8

## CCN(CC)c1nc(N)c([N+](=O)[O-])c(/C=C\c2ccc(N(CCCl)CCCl)cc2)n1
dose: 1.0 mg/kg/injection, schedule: Q01DX001 (ip), vehicle: water
  survivor count: 2 of 2
dose: 10.0 mg/kg/injection, schedule: Q01DX001 (ip), vehicle: water
  survivor count: 2 of 2
dose: 100.0 mg/kg/injection, schedule: Q01DX001 (ip), vehicle: water
  survivor count: 2 of 2

## CC(=O)Nc1ncc2ccccc2c1-c1ccc(NC(=O)CN(CCO)CCO)cc1
[1]
  survivor count: 2 of 2
[4]
  survivor count: 2 of 2
[2]
  survivor count: 2 of 2
[5]
  survivor count: 2 of 2
[3]
  survivor count: 2 of 2
[6]
  survivor count: 2 of 2
